For some of these results: Protein sequences can lack the tags named with them. For some of these results: Construct, isoform or probe ends are uncertain for at least one entry. For some of these results: Weaker means in comparison with the reference protein, sequence or condition of that experiment. For some of these results: At least one verdict was read from the data and is not stated in words by the source.
How the values were obtained:
[1] = molecular target: T1, MS2 coat protein, dlFG mutant del68-81insG (Escherichia phage MS2) (UniProt P03612); assay: binding assay; conditions: 4 mM Mg2+, RNA-MaP array, 100 mM Tris-HCl pH 7.5, 80 mM KCl, 4 mM MgCl2, 0.1 mg/mL BSA, 1 mM DTT, 0.01 mg/mL yeast tRNA, 0.01% Tween-20, protein 1.5 nM to 3 uM, 37 C (Table S3), purified recombinant protein
T1 sequence (looked up, limits assumed): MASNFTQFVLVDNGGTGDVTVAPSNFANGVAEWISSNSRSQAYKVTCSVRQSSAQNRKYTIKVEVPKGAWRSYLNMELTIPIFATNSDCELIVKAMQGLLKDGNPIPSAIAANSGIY

[2] = molecular target: MS2 coat protein (bacteriophage MS2) (UniProt P03612); assay: flow cytometry of RNA-coated beads; conditions: RNA-MaP: 100 mM Tris-HCl pH 7.5, 80 mM KCl, 4 mM MgCl2, 0.1 mg/mL BSA, 1 mM DTT, 0.01 mg/mL yeast tRNA, 0.01% Tween-20, protein details: fluorescently labeled
[3] = no ligand, variant of MS2 control

## AAUAAAUAUAAAUUUUAUUUGUCGUAGGAUAUGGGUGACAUGAGGAUCACCCAUGUUGCAGACGACCAGAAGGGCGGCGGAUAU [Eterna 6425687 (Small Loop Same State NG 3)]
[1]; FMN 200 uM
  Kd: > 3 µM

## AAUUUAAUACAUGAGGAUCACCCAUGUAAUACUUGUAAGAUCAAGGAUAUCAGCUCGUUUAGAGCUGAGAAGGUGAUCACAUGU [Eterna 5958801 (Same State NG 3)]
[1]; no ligand
  Kd: > 3 µM

## AGAGUCACAUAAGGAUAUCCCUUGACGGGAACCAAGUGAUGUUUGGUUAGACGACCUCUUAUCACGGGAGAAGGUAUAUUUGUAU [Eterna 1576 (Same State - FMN B)]
[1]; [3]
  Kd: > 3 µM

## AGAUGCAUGUAGAAGGGAGGAUCACCAGUGUACUCAGGAUAUACAUGUGGUGACAUGAGGAUCACCCAUGUAUGCCAGAAGUUC [Eterna 6429645 (Inverted Same State NG 1)]
[1]; no ligand
  Kd: > 3 µM

## AUAAUGUGAGGAUAUCAGUCGACUAGCUGCGGCUAGUCGACUGAGAAGGCACAUGAGGAUCACCCAUGUAGAUC [Eterna 5971727 (Exclusion 4)]
[1]; FMN 200 uM
  Kd: > 3 µM

## AUGAGGGAAGUAGGAUAUGAUCAAGACAUGAGGAUCACCCAUGUAAUGAGGGUGUGUGUCUUUGUUCAGAAGGACUUGUGUCAA [Eterna 6148143 (Exclusion NG 2)]
[1]; FMN 200 uM
  Kd: > 3 µM

## CAACGUACCAGAGGAUAUGAUUGUGGGUAAAGAGCGCUCAGGUGGCUACAUGAGGAUCACCCAUGUCAGAAGGCUGGAGUUCAA [Eterna 6148029 (Exclusion NG 2)]
[1]; no ligand
  Kd: > 3 µM

## CCGAAUGUCACAGGAUAUGGUCCGGGCACGGGACCAGAAGGGUGAUCUCACAUGAGGAUCACCCAUGUGCAGGCGUUAGGCUGC [Eterna 6148459 (Same State NG 1)]
[1]; no ligand
  Kd: > 3 µM

## GGCCCGGACUUGGAAUGGGUGUUUCCCUCACGAGGACCGGUACGGCCGCCACUCGAAGACAUGAGGAUCACCCAUGUAGUCGACA [Eterna 7727150 (Exclusion - Tryptophan A)]
[1]; no ligand
  Kd: > 3 µM

## GGGUAUGUCGCAGAAGUAGCUAUCGGAGGAUAUUCAUACCGGAAACGGACAUGAGGAUCACCCAUGUGGCGAAAGCCUUGGGAGAAGGCUGAUAGCUACAACUGCGACAUACCCAAAAAAAAAAAAAAAAAAAAAAAAA [BC_JL-sng2-3.09]
[2]; no FMN (OFF state)
  binding result: binds more weakly
[2]; with FMN (ON state)
  binding result: binds

## GGUACCAUCGCAGGAUAUGCUAUCCUUUGGGUAGCAGAAGGGUGAUAACAUGAGGAUCACCCAUGUGGUACCGGGCGUGAGCCC [Eterna 6130126 (Same State NG 1)]
[1]; no ligand
  Kd: > 3 µM

## UGUAUGUGAUCUGAUACCAGUCCAACUGGUAAAGCAUGAGGAUCACCCAUGUAAAAUUGGGACCCUUGGCAGCAGAUCGCAUACU [Eterna 7730098 (Same State - Theophylline B)]
[1]; [3]
  Kd: > 3 µM
